Reference: US8618079B2, “Imidazo[1,2-a] pyridinyl bisphosphonates” (Isis Innovation Limited, priority 2008, dated 2013)

Assay: Hydroxyapatite (HAP) affinity, chromatographic retention on HAP column
Assay type: physicochemical
Conditions: phosphate buffer gradient 1 mM to 1000 mM, pH 6.8, longer retention = higher mineral affinity
Protocol: Mineral affinity for hydroxyapatite was evaluated by chromatographic profiling of the novel bisphosphonate compounds. Hydroxyapatite (HAP) ceramic spheres (20 mm diameter, BioRad) were packed in a 0.66×6.5 cm glass column (Omnifit®). The HAP columns were attached to a Waters 650E Advanced Protein Purification System (FPLC) (Millipore) in a running buffer of 1 mM KPO3 at pH 6.8. Each compound was prepared in 1 mM KPO3 buffer at pH6.8 and 400 μmoles were injected into the FPLC system. The bisphosphonate compounds were eluted in a gradient of phosphate buffer, concentration increasing from 1 mM up to 1000 mM and detected by a Waters 484 UV absorbance detector (Millipore) at their optimum wavelength. […] Longer retention times (minutes) correspond with higher affinity to the HAP sphere and, correspondingly, higher mineral affinity.

NCCCC(O)(P(=O)(O)O)P(=O)(O)O [Alendronate, reference compound]
HAP Affinity Retention time: 17.5 min
